Binding data for 4 molecules are collected here from patent publication US20230080534A1, “SEMG2 ANTIBODY AND USE THEREOF” (SHANGHAI BIOTROY BIOTECHNIQUE CO., LTD., priority 2020, published 2023).

The chains behind the UniProt entries cited, without tags or fusion partners. Residues count along the entry.
UniProt P41272, residues 24-250: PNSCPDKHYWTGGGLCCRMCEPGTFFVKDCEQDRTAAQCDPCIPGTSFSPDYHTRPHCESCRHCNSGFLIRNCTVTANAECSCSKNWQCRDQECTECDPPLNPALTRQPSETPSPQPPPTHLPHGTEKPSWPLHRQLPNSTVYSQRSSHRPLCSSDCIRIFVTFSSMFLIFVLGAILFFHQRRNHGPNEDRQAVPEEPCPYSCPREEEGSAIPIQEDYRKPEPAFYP

Test [1] concerns the target human CD27 (HA-tagged, expressed in HEK293 cells) (human) (UniProt P26842). The experiment in a line: co-immunoprecipitation (FIG. 3).
The target of test [2] is mouse CD27 (expressed in HEK293 cells) (mouse) (UniProt P41272). The experiment in a line: co-immunoprecipitation (FIG. 4, right panel).
Test [3] shares this target. Description: co-immunoprecipitation, HEK293 co-transfection.
The target in test [4] is human CD27 (HA-tagged, expressed in HEK293 cells) (human) (UniProt P26842). The experiment in a line: co-immunoprecipitation, HEK293 co-transfection.
The target is the same in test [5]. The experiment in a line: co-immunoprecipitation (FIG. 4, left panel).
For test [6], the target named is mouse CD27 (expressed in HEK293 cells) (mouse) (UniProt P41272). Description: co-immunoprecipitation (FIG. 1, lower panel).
In test [7] the target is human CD27 (HA-tagged, expressed in HEK293 cells) (human) (UniProt P26842). Description: co-immunoprecipitation (FIG. 1, upper panel).
In test [8] the target is mouse CD27 (expressed in HEK293 cells) (mouse) (UniProt P41272). The experiment in a line: co-immunoprecipitation with Flag antibody, HEK293 co-transfection.
The target in test [9] is human CD27 (HA-tagged, expressed in HEK293 cells) (human) (UniProt P26842). Described as above.
In test [10] the target is T1, CD27 protein (ELISA, form not stated) (UniProt P26842).
T1 sequence (looked up): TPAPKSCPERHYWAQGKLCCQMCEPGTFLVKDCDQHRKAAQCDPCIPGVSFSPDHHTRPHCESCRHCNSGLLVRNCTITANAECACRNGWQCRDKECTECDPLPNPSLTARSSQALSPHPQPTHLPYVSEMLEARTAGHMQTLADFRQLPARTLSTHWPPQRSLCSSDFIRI
The experiment in a line: ELISA, HEK293-expressed full-length SEMG2. In general terms: In an ELISA, binding on a coated surface is turned into a signal by an enzyme label.

For test [11], the target named is human SEMG2 full-length protein (human) (UniProt Q02383). The experiment in a line: ELISA, SEMG2 in microplate, CD27 titrated (FIG. 2B).

Results are given in words; binding and its absence hold for the method and conditions named. For some assays here: Binding seen in cells or lysates may run through a third protein. Some entries that bind do so weakly or less than the wild type. For some assays here: Where a sequence is shown, tags or fusion partners need not be part of it.

In the case of FQIEKLVEGKSQIQTPNPNQDQWSGQNAKGKSGQSADSKQDLLSH (peptide, not shown: large carriers) [SEMG2-P5 fused with GFP], the binding result in test [1], in test [2], in test [3], in test [4] and in test [5] was “binds” throughout.

B1: Flag-SEMG2 expressed in HEK293 cells (pcDNA3-Flag-SEMG2) (ligand, not shown: small tags and cut ends)
chain: QKGGSKGQLPSGSSQFPHGQKGQHYFGQKDQQHTKSKGSFSIQHTYHVDINDHDWTRKSQQYDLNALHKATKSKQHLGGSQQLLNYKQEGRDHDKSKGHFHMIVIHHKGGQAHHGTQNPSQDQGNSPSGKGLSSQCSNTEKRLWVHGLSKEQASASGAQKGRTQGGSQSSYVLQTEELVVNKQQRETKNSHQNKGHYQNVVDVREEHSSKLQTSLHPAHQDRLQHGPKDIFTTQDELLVYNKNQHQTKNLSQDQEHGRKAHKISYPSSRTEERQLHHGEKSVQKDVSKGSISIQTEEKIHGKSQNQVTIHSQDQEHGHKENKISYQSSSTEERHLNCGEKGIQKGVSKGSISIQTEEQIHGKSQNQVRIPSQAQEYGHKENKISYQSSSTEERRLNSGEKDVQKGVSKGSISIQTEEKIHGKSQNQVTIPSQDQEHGHKENKMSYQSSSTEERRLNYGGKSTQKDVSQSSISFQIEKLVEGKSQIQTPNPNQDQWSGQNAKGKSGQSADSKQDLLSHEQKGRYKQESSESHNIVITEHEVAQDDHLTQQYNEDRNPIST
Consider B1, for which the binding result in test [6], in test [7], in test [8] and in test [9] was “binds” in each case.

B2: human SEMG2 full-length protein (ligand)
chain: QKGGSKGQLPSGSSQFPHGQKGQHYFGQKDQQHTKSKGSFSIQHTYHVDINDHDWTRKSQQYDLNALHKATKSKQHLGGSQQLLNYKQEGRDHDKSKGHFHMIVIHHKGGQAHHGTQNPSQDQGNSPSGKGLSSQCSNTEKRLWVHGLSKEQASASGAQKGRTQGGSQSSYVLQTEELVVNKQQRETKNSHQNKGHYQNVVDVREEHSSKLQTSLHPAHQDRLQHGPKDIFTTQDELLVYNKNQHQTKNLSQDQEHGRKAHKISYPSSRTEERQLHHGEKSVQKDVSKGSISIQTEEKIHGKSQNQVTIHSQDQEHGHKENKISYQSSSTEERHLNCGEKGIQKGVSKGSISIQTEEQIHGKSQNQVRIPSQAQEYGHKENKISYQSSSTEERRLNSGEKDVQKGVSKGSISIQTEEKIHGKSQNQVTIPSQDQEHGHKENKMSYQSSSTEERRLNYGGKSTQKDVSQSSISFQIEKLVEGKSQIQTPNPNQDQWSGQNAKGKSGQSADSKQDLLSHEQKGRYKQESSESHNIVITEHEVAQDDHLTQQYNEDRNPIST
In the case of B2, in test [10], the binding result is recorded as “binds”.

B3: CD27 protein (ELISA, form not stated) (receptor, UniProt P26842 21-192, looked up)
chain: TPAPKSCPERHYWAQGKLCCQMCEPGTFLVKDCDQHRKAAQCDPCIPGVSFSPDHHTRPHCESCRHCNSGLLVRNCTITANAECACRNGWQCRDKECTECDPLPNPSLTARSSQALSPHPQPTHLPYVSEMLEARTAGHMQTLADFRQLPARTLSTHWPPQRSLCSSDFIRI
On to B3, for which the binding result in test [11] is given as “binds”.
